Laboratory results reported in patent publication US7071161B2, “Variants of corticotropin releasing hormone receptor Type 1 and uses thereof” (The University of Tennessee Research Corporation, priority 2001, dated 2006).
At least one structure is not confirmed: it was looked up by name or label, or the drawing left a doubt.

Tests used:
CRH-R1 mRNA [1] = assay: CRH-R1 isoform expression by nested RT-PCR in treated SKMEL188 melanoma cells; assay type: cell-based; conditions: human melanoma cells SKMEL188; 24 hours; result in words
Protocol: (§1) In some experiments, SKMEL188, HaCaT and C4-1 cells were also treated with TPA, forskolin or a mixture of IBMX (3-isobutyl-1-methylxanthine) and dbcAMP (N6, 2′-O-dibutyryladenosine 3′:5′-cyclic monophosphate sodium) (all from Sigma). Briefly, the cells were transferred to 75 cm^2 flasks ( 10^6 cells/flask) and cultured for 24 hours in standard culture medium. Then the following compounds were added to the separate cultures: TPA (200 nM), forskolin (10^−5 M), IBMX (5×10^−4 M), and dbcAMP (10^−3 M). Controls were represented by untreated cultures. The cells were incubated for 24 hours, detached, collected by centrifugation, and dissolved in RNA isolation solution (Trizol reagent).
(§2) Total RNA was extracted using a Trizol isolation kit (Gibco-BRL, Gaithersburg, Md.). The synthesis of first-strand cDNA was performed using the Superscript preamplification system (Gibco-BRL). Five μg of total RNA per reaction was reverse transcribed using oligo(dT) as the primer.
(§3) Nested PCR was used to detect different CRH-R1 isoforms. The first round of amplification of the human CRH-R1 fragment spanning exons 2–7 was conducted using 2 μl of cDNA and primers P110: 5′-[…]-3′ (sense) (SEQ ID No. 15) and P111: 5′-[…]-3′ (antisense) (SEQ ID No. 16). An aliquot of the PCR mixture from the first round of amplification was transferred to a new tube, and a second round of PCR was conducted. […]

CRH-R1 mRNA [2] = assay: CRH-R1 isoform expression by nested RT-PCR in treated HaCaT immortalized keratinocytes; assay type: cell-based, human; conditions: 24 hours, result in words
Protocol: as §1, §2, §3

C=C[C@@]1(C)CC(=O)[C@]2(O)[C@@]3(C)[C@@H](O)CCC(C)(C)[C@@H]3[C@H](O)[C@H](OC(C)=O)[C@@]2(C)O1 [forskolin]
change of CRH-R1 splicing pattern versus untreated control (CRH-R1 mRNA [1]): inhibited expression of CRH-R1d and stimulated expression of CRH-R1α and CRH-R1g
change of CRH-R1 splicing pattern versus untreated control (CRH-R1 mRNA [2]): had no effect on splicing
